In the supplement of paper PMC12823440, “Inhibitors supercharge kinase turnover through native proteolytic circuits” (Nature, 2025):
Structures can show the parent of a compound that is named as a salt. The list shows a part of the results. Hit calls seldom repeat between salt and free forms of one compound.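 Kinases were expressed as nanoluciferase fusions in K562 cells and luminescence was read every 4 h between 2 and 18 h as percent of control, DMSO set to 100% and a positive control to 0%. A time point counts as decreased when the signal drops significantly (2 sigma). The hit call is the authors' own, does not follow from the count of time points alone, and its rule is not shown.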

Protein sequences, listed by entry. Tags and fused reporters are not part of them. Lines headed by an entry give the natural chain unless they say otherwise; changes in a name come on top.
UniProt Q9UBF8: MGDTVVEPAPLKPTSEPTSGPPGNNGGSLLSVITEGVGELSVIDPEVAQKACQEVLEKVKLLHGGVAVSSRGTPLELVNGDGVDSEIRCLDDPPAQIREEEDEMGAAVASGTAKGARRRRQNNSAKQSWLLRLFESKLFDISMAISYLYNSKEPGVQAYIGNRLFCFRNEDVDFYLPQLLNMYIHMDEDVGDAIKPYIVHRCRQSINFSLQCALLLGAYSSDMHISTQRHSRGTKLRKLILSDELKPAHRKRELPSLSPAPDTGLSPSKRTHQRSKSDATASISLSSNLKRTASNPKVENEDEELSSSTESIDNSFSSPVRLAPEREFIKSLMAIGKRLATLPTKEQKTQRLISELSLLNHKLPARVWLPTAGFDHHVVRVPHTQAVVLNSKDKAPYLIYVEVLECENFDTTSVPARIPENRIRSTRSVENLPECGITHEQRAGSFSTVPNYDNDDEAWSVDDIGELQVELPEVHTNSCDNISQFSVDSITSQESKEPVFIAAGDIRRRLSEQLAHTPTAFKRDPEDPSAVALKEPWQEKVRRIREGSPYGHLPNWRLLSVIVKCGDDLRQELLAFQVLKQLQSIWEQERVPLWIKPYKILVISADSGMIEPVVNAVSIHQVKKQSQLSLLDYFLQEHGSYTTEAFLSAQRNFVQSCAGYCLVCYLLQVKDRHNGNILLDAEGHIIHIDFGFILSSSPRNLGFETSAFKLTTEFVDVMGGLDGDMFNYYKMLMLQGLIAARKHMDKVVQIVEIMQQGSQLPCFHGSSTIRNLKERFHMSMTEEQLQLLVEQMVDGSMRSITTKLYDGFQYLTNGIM
UniProt P53350, whole entry: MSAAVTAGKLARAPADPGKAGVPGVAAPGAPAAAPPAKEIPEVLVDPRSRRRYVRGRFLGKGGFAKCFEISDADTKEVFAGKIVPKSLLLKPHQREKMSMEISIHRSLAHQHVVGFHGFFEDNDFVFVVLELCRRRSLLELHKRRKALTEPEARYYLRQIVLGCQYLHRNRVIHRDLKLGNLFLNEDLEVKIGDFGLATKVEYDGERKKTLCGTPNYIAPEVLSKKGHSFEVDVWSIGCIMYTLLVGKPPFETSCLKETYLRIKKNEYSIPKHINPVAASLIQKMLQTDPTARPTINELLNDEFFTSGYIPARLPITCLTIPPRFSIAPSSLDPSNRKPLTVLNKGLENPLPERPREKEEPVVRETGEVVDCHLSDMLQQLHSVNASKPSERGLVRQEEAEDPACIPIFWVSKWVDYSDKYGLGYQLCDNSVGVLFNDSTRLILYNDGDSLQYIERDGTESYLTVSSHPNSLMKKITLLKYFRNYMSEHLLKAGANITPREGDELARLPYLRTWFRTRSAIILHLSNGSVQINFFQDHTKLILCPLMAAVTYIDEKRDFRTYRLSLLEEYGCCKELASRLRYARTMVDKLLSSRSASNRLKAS

biological target: PIK4CB (UniProt Q9UBF8); assay: kinase-Nluc reporter destabilization hit call (1 = scored as downregulated) (binary); higher = compound decreases kinase abundance; conditions: K562; 2-18 h

kinase-Nluc reporter destabilization hit call, inactive:
COc1cc2ncnc(Nc3cc(Br)c(O)c(Br)c3)c2cc1OC (2.5 µM) 0
CO[C@]1(C(=O)N[C@@H](C)c2ccc(-n3cc(F)cn3)nc2)CC[C@H](c2nc(C)cc(Nc3cc(C)[nH]n3)n2)CC1 [Pralsetinib] (10 µM) 0
CCc1cc(Nc2nccc(-c3c(-c4ccc(OC)c(C(=O)Nc5c(F)cccc5F)c4)nc4ccccn34)n2)c(OC)cc1N1CCC(N2CCN(S(C)(=O)=O)CC2)CC1 (2.5 µM) 0
CNC(=O)CN1CCC(Oc2cc3c(Nc4cccc(Cl)c4F)ncnc3cc2OC)CC1 [Sapitinib] (10 µM) 0
COc1ccc(Br)c(C=O)c1O [6-Bromo-2-hydroxy-3-methoxybenzaldehyde] (10 µM) 0
N#C/C(=C/c1ccc(O)c(O)c1)C(=O)N1CCc2ccccc21 [Tyrphostin AG 528] (10 µM) 0
C[C@H](Nc1cc2c(-c3ccc4c(c3)OCO4)noc2cn1)c1ccccc1 (10 µM) 0
CC1(C)CN(C(=O)c2ccc(-c3cccc4nc(NC(=O)C5CC5)nn34)cc2)C1 [Solcitinib] (10 µM) 0
COc1ccc(Cl)cc1N(CC(=O)Nc1ccc2c(c1)OCO2)S(=O)(=O)c1ccccc1 (2.5 µM) 0
CN1CCN(c2ccc(-n3cc(-c4ccncc4OCC4CCNCC4)cn3)cc2)CC1 [MELK-8a (hydrochloride)] (10 µM) 0
CC1=CC(=O)C(C(C)C)=C/C1=N/OC(=O)c1ccccc1C [Poloxin] (2.5 µM) 0
O=C(O)/C=C(\CCc1ccc(Cl)cc1)c1ccccc1 (10 µM) 0
CCOC(=O)c1c(C)[nH]c(C=C2C(=O)Nc3ccccc32)c1C (10 µM) 0
O=C(NC[C@H](O)CO)c1ccncc1Nc1ccc(I)cc1F [Pimasertib] (10 µM) 0
O=[N+]([O-])c1ccc(-c2nc(-c3ccc(F)cc3)c(-c3ccncc3)[nH]2)cc1 (10 µM) 0
COc1ccc(CCNCc2ccc(OCc3ccc(Cl)nc3)c(OC)c2)cc1OC [SBE13 (Hydrochloride)] (10 µM) 0

biological target: PLK1 (UniProt P53350); assay: as above; conditions: K562; 2-18 h

kinase-Nluc reporter destabilization hit call, inactive:
COc1ccc2nc3ccc(OC)cc3c(SCCCN)c2c1 (10 µM) 0
CS(=O)(=O)c1cccc(CNc2nc(Nc3ccc4c(c3)CCC(=O)N4)ncc2C(F)(F)F)c1 (10 µM) 0
CS(=O)(=O)c1ccc([C@@H](CC2CCCC2)C(=O)Nc2nccs2)cc1 (10 µM) 0
C=CC(=O)Nc1cc(Nc2nccc(-c3cn(C)c4ccccc34)n2)c(OCC(F)(F)F)nc1N(C)CCNC [AST5902  (trimesylate)] (2.5 µM) 0
CO/N=C1/C(c2c(O)[nH]c3cc(Cl)c(Cl)cc23)=Nc2ccccc21 (10 µM) 0
CC(ONC(=O)c1cc(C(F)(F)F)cc(C(F)(F)F)c1)C(=O)Nc1ccc(Cl)cc1 (stereo unspecified) (2.5 µM) 0
Cc1ccc(C2CC(=O)NC(SCC(=O)Nc3nccs3)=C2C#N)cc1 (stereo unspecified) [Necrostatin-34] (10 µM) 0
O=CN1CCN(c2ccc(C=C3C(=O)Nc4ccccc43)cc2)CC1 (10 µM) 0
CCCS(=O)(=O)N[C@H]1C[C@@H](N(C)c2ncnc3[nH]ccc23)C1 [Abrocitinib] (10 µM) 0
NC(=O)c1cnc(N[C@@H]2CCCC[C@@H]2N)nc1Nc1cccc(-n2nccn2)c1 (2.5 µM) 0
CS[C@@]1(C(=O)Nc2ccc3[nH]nc(-c4ccc(OC(C)C)nc4)c3c2)CCN(CC(=O)N2CC=C(c3ccc(-c4ncn(C)n4)cc3)CC2)C1 (2.5 µM) 0
Fc1ccc(Cl)cc1-c1nc(Nc2ccncc2)c2nccnc2n1 (10 µM) 0
O=C(Nc1ccccc1C(=O)NC1CCCCNC1=O)c1cc2ccccc2s1 (stereo unspecified) (10 µM) 0
O=C(O)c1c[nH]c2cc(Cl)c(-c3ccc(C4(O)CCC4)cc3)cc12 (10 µM) 0
CN(C[C@@H]1COCCO1)S(=O)(=O)Nc1ccc2ccc3ncc(-c4cnn(C)c4)cc3c(=O)c2c1 (2.5 µM) 0
Cc1ccc2c(NS(=O)(=O)c3ccccc3Cl)cccc2c1Oc1ncccc1-c1ccnc(N[C@H]2CCCNC2)n1 (2.5 µM) 0
O=C(Nc1ccc(Cl)cc1)C1CN(C(=O)c2cccc(-c3ccco3)c2)CC(F)(F)C1 (stereo unspecified) (2.5 µM) 0
COc1ccc(CN2CCC(c3ccc4nc(C(=O)N5CCN(Cc6ccc(C(F)(F)F)cc6)CC5)[nH]c4c3)CC2)cn1 (2.5 µM) 0
CC(C)=CCC[C@](C)(O[C@@H]1O[C@H](CO[C@@H]2O[C@H](CO)[C@@H](O)[C@H](O)[C@H]2O)[C@@H](O)[C@H](O)[C@H]1O)[C@H]1CC[C@]2(C)[C@@H]1[C@H](O)C[C@@H]1[C@@]3(C)CC[C@H](O[C@@H]4O[C@H](CO)[C@@H](O)[C@H](O)[C@H]4O[C@@H]4O[C@H](CO)[C@@H](O)[C@H](O)[C@H]4O)C(C)(C)[C@@H]3CC[C@]12C [Ginsenoside Rb1] (10 µM) 0
COc1cc2ncnc(Nc3cc(Br)c(O)c(Br)c3)c2cc1OC (2.5 µM) 0
CO[C@]1(C(=O)N[C@@H](C)c2ccc(-n3cc(F)cn3)nc2)CC[C@H](c2nc(C)cc(Nc3cc(C)[nH]n3)n2)CC1 [Pralsetinib] (10 µM) 0
CCc1cc(Nc2nccc(-c3c(-c4ccc(OC)c(C(=O)Nc5c(F)cccc5F)c4)nc4ccccn34)n2)c(OC)cc1N1CCC(N2CCN(S(C)(=O)=O)CC2)CC1 (2.5 µM) 0
Cc1nc2c(NCc3cccc(S(C)(=O)=O)c3)nccn2c1-c1ccc(O)c(F)c1 (10 µM) 0
CNC(=O)CN1CCC(Oc2cc3c(Nc4cccc(Cl)c4F)ncnc3cc2OC)CC1 [Sapitinib] (10 µM) 0
COc1ccc(Br)c(C=O)c1O [6-Bromo-2-hydroxy-3-methoxybenzaldehyde] (10 µM) 0
N#C/C(=C/c1ccc(O)c(O)c1)C(=O)N1CCc2ccccc21 [Tyrphostin AG 528] (10 µM) 0
CC1(C)CN(C(=O)c2ccc(-c3cccc4nc(NC(=O)C5CC5)nn34)cc2)C1 [Solcitinib] (10 µM) 0
Cc1ccc(NC(=O)N2CCN(c3nc(N)nc4sc(-c5cccnc5)nc34)CC2)cc1 [PI4KIII beta inhibitor 3] (10 µM) 0
COc1ccc(Cl)cc1N(CC(=O)Nc1ccc2c(c1)OCO2)S(=O)(=O)c1ccccc1 (2.5 µM) 0
CN1CCN(c2ccc(-n3cc(-c4ccncc4OCC4CCNCC4)cn3)cc2)CC1 [MELK-8a (hydrochloride)] (10 µM) 0
O=C(O)/C=C(\CCc1ccc(Cl)cc1)c1ccccc1 (10 µM) 0
CCOC(=O)c1c(C)[nH]c(C=C2C(=O)Nc3ccccc32)c1C (10 µM) 0
O=C(NC[C@H](O)CO)c1ccncc1Nc1ccc(I)cc1F [Pimasertib] (10 µM) 0
O=[N+]([O-])c1ccc(-c2nc(-c3ccc(F)cc3)c(-c3ccncc3)[nH]2)cc1 (10 µM) 0
COc1ccc(CCNCc2ccc(OCc3ccc(Cl)nc3)c(OC)c2)cc1OC [SBE13 (Hydrochloride)] (10 µM) 0
